Taken from: PubChem BioAssay AID1259308 (NCATS, 2017)
Here is an unselected part of about 59,000 reagents. About 1,510 of them (2.6%) were called active. 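Calls use total luciferase alone and ignore viability, so some active siRNAs may act by altering cell number.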 The numbers tell different reagents against one gene apart. Reagent sequences are not shown.

Aim: 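Knock-downs that increase output of a recombinant reporter protein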 (primary screen)
Cells: human HEK293 embryonic kidney cells stably expressing firefly luciferase (HEK-CMV-Luc2-Hygro)
Reagents: single siRNA against human genes, 0.8 pmol siRNA per well
Time to read-out: 72 h
Measured: 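Reporter luminescence and viable-cell signal on separate replicate plates, given as percent of non-targeting control and median/MAD z-scores, plus per-cell luciferase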
Direction: total luciferase, z-score and total luciferase, % of control: higher = more reporter protein produced; luciferase per cell, z-score: higher = more reporter output per viable cell; viable cells, % of control: higher = more viable cells
Call rule: 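An siRNA counts as active if its total luciferase robust z-score exceeds 3; genes with two or more such siRNAs out of three were retested with fresh siRNAs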
Meaning of the calls: active = raised luciferase; inactive = no rise

no.	target gene	reagent no.	total luciferase, z-score	total luciferase, % of control	luciferase per cell, z-score	viable cells, % of control	Call
1	SPPL2B (GeneID 56928)	1	-1.13	59.4	-1.09	88.5	inactive
2	SPPL2B (GeneID 56928)	2	-0.281	76.3	-0.25	91.1	inactive
3	SPPL2B (GeneID 56928)	3	0.483	91.5	0.0188	102	inactive
4	ZBTB8OSP1 (GeneID 729566)	1	-0.528	71.4	0.988	61.5	inactive
5	ZBTB8OSP1 (GeneID 729566)	2	0.213	86.1	0.587	82.5	inactive
6	ZBTB8OSP1 (GeneID 729566)	3	-1.67	48.8	-1.57	82.4	inactive
7	DNM1P49 (GeneID 730058)	1	0.113	84.1	-0.284	101	inactive
8	DNM1P49 (GeneID 730058)	2	-0.401	73.9	-0.0745	84.2	inactive
9	DNM1P49 (GeneID 730058)	3	-0.0167	81.6	1.44	62.4	inactive
10	PITPNM3 (GeneID 83394)	1	-0.0839	80.2	-0.224	95.1	inactive
11	PITPNM3 (GeneID 83394)	2	0.481	91.5	-0.339	112	inactive
12	PITPNM3 (GeneID 83394)	3	0.497	91.8	-0.536	118	inactive
13	ALG10 (GeneID 84920)	1	0.211	86.1	-0.0642	97.8	inactive
14	ALG10 (GeneID 84920)	2	1.41	110	0.772	100	inactive
15	ALG10 (GeneID 84920)	3	-0.446	73	-0.845	102	inactive
16	IDI2 (GeneID 91734)	1	-0.341	75.1	-0.121	86.6	inactive
17	IDI2 (GeneID 91734)	2	-0.875	64.5	-0.722	87.2	inactive
18	IDI2 (GeneID 91734)	3	-0.38	74.3	-1.09	111	inactive
19	ATP6V1E2 (GeneID 90423)	1	-0.358	74.8	-1.1	112	inactive
20	ATP6V1E2 (GeneID 90423)	2	1.07	103	0.849	92.1	inactive
21	ATP6V1E2 (GeneID 90423)	3	4.48	171	1.83	118	active
22	IQCJ (GeneID 654502)	1	-0.439	73.2	0.849	65.4	inactive
23	IQCJ (GeneID 654502)	2	0.353	88.9	0.452	88.2	inactive
24	IQCJ (GeneID 654502)	3	-0.395	74	-0.932	106	inactive
25	SUN2 (GeneID 25777)	1	1.82	118	3.31	55.2	inactive
26	SUN2 (GeneID 25777)	2	-0.488	72.2	-0.301	87.3	inactive
27	SUN2 (GeneID 25777)	3	-0.0637	80.6	-0.4	100	inactive
28	PRR16 (GeneID 51334)	1	-0.112	79.7	0.00826	88.8	inactive
29	PRR16 (GeneID 51334)	2	-0.207	77.8	-0.248	92.8	inactive
30	PRR16 (GeneID 51334)	3	3.56	153	1.87	104	active
31	CD47 (GeneID 961)	1	-0.0477	80.9	-0.164	94.4	inactive
32	CD47 (GeneID 961)	2	3.9	159	2.72	87.1	active
33	CD47 (GeneID 961)	3	-1.1	60.1	-1.32	95.1	inactive
34	LOC729683 (GeneID 729683)	1	1.87	119	2.24	73.7	inactive
35	LOC729683 (GeneID 729683)	2	-1.13	59.5	0.437	59.2	inactive
36	LOC729683 (GeneID 729683)	3	-1.75	47.1	-1.59	80	inactive
37	RYR2 (GeneID 6262)	1	-1.13	59.5	-1.31	93.9	inactive
38	RYR2 (GeneID 6262)	2	0.253	86.9	-0.12	100	inactive
39	RYR2 (GeneID 6262)	3	0.477	91.4	-0.656	121	inactive
40	MAPK14 (GeneID 1432)	1	0.725	96.3	1.01	82.6	inactive
41	MAPK14 (GeneID 1432)	2	-1.06	60.8	-0.544	78.4	inactive
42	MAPK14 (GeneID 1432)	3	-0.847	65	0.564	62.6	inactive
43	DENND6A (GeneID 201627)	1	0.522	92.3	0.095	101	inactive
44	DENND6A (GeneID 201627)	2	1.18	105	2.49	61.1	inactive
45	DENND6A (GeneID 201627)	3	0.986	101	1.24	81.8	inactive
46	NPEPL1 (GeneID 79716)	1	0.452	90.9	0.246	95.2	inactive
47	NPEPL1 (GeneID 79716)	2	2.83	138	2.94	71.1	inactive
48	NPEPL1 (GeneID 79716)	3	-0.536	71.2	-1.15	108	inactive
49	KNDC1 (GeneID 85442)	1	1.58	113	1.23	91.6	inactive
50	KNDC1 (GeneID 85442)	2	0.142	84.7	0.0257	94	inactive
51	KNDC1 (GeneID 85442)	3	-2.63	29.5	-2.34	61.1	inactive
52	FAM216A (GeneID 29902)	1	1.22	106	0.977	91.8	inactive
53	FAM216A (GeneID 29902)	2	-0.516	71.6	-0.158	83.4	inactive
54	FAM216A (GeneID 29902)	3	4.86	179	2.88	93.6	active
55	CLCN7 (GeneID 1186)	1	0.929	100	0.772	91.5	inactive
56	CLCN7 (GeneID 1186)	2	0.131	84.5	-0.753	115	inactive
57	CLCN7 (GeneID 1186)	3	0.116	84.2	-0.427	105	inactive
58	DLEU7 (GeneID 220107)	1	2.64	134	2.6	75.8	inactive
59	DLEU7 (GeneID 220107)	2	-0.754	66.9	-0.587	87.2	inactive
60	DLEU7 (GeneID 220107)	3	-0.497	72	-0.31	87.3	inactive
61	NATD1 (GeneID 256302)	1	0.126	84.4	0.793	76.5	inactive
62	NATD1 (GeneID 256302)	2	-1.4	54.1	-1.01	78.9	inactive
63	NATD1 (GeneID 256302)	3	-1.05	61.1	-0.507	78	inactive
64	ARHGEF9 (GeneID 23229)	1	-0.964	62.7	-0.822	87	inactive
65	ARHGEF9 (GeneID 23229)	2	0.623	94.3	-0.141	109	inactive
66	ARHGEF9 (GeneID 23229)	3	-1.34	55.2	-0.867	77.5	inactive
67	CLBA1 (GeneID 122616)	1	0.778	97.4	0.186	104	inactive
68	CLBA1 (GeneID 122616)	2	2.45	131	1.38	102	inactive
69	CLBA1 (GeneID 122616)	3	1.26	107	0.549	103	inactive
70	CTDP1 (GeneID 9150)	1	-1.3	56.1	-1.51	93.2	inactive
71	CTDP1 (GeneID 9150)	2	-1.42	53.7	-2.26	109	inactive
72	CTDP1 (GeneID 9150)	3	-1.38	54.5	-2.25	110	inactive
73	RRAS (GeneID 6237)	1	0.588	93.6	0.703	86.9	inactive
74	RRAS (GeneID 6237)	2	1.33	108	1.46	82.6	inactive
75	RRAS (GeneID 6237)	3	-0.717	67.6	-0.877	95.2	inactive
